Results from the supplement of paper PMC6411743.
± gives the standard deviation of the averaged measurements. This is a selection; strong and weak results do not stand in their true shares.

How the values were obtained:
Assay in all cases: NP40-soluble protein abundance relative to vehicle (solubility fold change) (ratio); higher = more soluble protein in presence of AMP-PNP
GALE = molecular target: T1, GALE (UniProt Q14376)
T1 sequence (whole entry): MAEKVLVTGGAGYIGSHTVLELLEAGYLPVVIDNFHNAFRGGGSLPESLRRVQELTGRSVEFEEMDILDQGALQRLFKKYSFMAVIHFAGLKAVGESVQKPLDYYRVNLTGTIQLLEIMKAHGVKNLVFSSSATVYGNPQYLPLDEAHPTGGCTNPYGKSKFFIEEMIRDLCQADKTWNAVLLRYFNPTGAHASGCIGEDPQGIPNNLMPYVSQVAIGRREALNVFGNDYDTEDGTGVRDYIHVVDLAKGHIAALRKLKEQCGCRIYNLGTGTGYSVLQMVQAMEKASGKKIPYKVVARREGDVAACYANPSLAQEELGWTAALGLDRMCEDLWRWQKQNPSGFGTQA
Method in brief: (§1)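 Across three independent experiments, values are fold changes against the detergent-processed vehicle for each replicate, based on vsn-normalised intensities. The samples were Jurkat crude lysate treated with eight concentrations (0.1 to 10 mM) for 10 min at room temperature and then 3 min at 37 °C. Lysate was solubilised with 0.8% NP40 and benzonase, ultracentrifuged, and the supernatant analysed by TMT-labelled LC-MS/MS.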

LAGE3 = molecular target: T2, LAGE3 (UniProt Q14657)
T2 sequence (whole entry): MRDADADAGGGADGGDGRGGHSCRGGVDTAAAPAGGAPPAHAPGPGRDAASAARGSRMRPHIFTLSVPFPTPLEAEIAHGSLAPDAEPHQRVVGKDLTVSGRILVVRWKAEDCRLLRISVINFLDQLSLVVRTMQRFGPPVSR
Method in brief: as §1

LMAN2 = molecular target: T3, LMAN2 (UniProt Q12907)
T3 sequence (whole entry): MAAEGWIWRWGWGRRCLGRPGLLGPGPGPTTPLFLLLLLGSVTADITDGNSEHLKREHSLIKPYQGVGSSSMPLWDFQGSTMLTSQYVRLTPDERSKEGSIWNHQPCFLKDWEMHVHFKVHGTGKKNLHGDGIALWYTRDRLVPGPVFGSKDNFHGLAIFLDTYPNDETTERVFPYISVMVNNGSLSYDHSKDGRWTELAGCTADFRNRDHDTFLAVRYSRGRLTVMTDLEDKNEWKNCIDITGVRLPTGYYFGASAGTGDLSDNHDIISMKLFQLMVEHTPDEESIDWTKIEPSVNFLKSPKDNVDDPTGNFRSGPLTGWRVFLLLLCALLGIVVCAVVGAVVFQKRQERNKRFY
Method in brief: as §1

MLLT11 = molecular target: T4, MLLT11 (UniProt Q13015)
T4 sequence (whole entry): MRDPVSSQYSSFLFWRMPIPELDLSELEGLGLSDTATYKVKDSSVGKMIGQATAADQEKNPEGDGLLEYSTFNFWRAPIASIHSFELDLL
Method in brief: as §1

NPAT = molecular target: T5, NPAT (UniProt Q14207)
T5 sequence (whole entry): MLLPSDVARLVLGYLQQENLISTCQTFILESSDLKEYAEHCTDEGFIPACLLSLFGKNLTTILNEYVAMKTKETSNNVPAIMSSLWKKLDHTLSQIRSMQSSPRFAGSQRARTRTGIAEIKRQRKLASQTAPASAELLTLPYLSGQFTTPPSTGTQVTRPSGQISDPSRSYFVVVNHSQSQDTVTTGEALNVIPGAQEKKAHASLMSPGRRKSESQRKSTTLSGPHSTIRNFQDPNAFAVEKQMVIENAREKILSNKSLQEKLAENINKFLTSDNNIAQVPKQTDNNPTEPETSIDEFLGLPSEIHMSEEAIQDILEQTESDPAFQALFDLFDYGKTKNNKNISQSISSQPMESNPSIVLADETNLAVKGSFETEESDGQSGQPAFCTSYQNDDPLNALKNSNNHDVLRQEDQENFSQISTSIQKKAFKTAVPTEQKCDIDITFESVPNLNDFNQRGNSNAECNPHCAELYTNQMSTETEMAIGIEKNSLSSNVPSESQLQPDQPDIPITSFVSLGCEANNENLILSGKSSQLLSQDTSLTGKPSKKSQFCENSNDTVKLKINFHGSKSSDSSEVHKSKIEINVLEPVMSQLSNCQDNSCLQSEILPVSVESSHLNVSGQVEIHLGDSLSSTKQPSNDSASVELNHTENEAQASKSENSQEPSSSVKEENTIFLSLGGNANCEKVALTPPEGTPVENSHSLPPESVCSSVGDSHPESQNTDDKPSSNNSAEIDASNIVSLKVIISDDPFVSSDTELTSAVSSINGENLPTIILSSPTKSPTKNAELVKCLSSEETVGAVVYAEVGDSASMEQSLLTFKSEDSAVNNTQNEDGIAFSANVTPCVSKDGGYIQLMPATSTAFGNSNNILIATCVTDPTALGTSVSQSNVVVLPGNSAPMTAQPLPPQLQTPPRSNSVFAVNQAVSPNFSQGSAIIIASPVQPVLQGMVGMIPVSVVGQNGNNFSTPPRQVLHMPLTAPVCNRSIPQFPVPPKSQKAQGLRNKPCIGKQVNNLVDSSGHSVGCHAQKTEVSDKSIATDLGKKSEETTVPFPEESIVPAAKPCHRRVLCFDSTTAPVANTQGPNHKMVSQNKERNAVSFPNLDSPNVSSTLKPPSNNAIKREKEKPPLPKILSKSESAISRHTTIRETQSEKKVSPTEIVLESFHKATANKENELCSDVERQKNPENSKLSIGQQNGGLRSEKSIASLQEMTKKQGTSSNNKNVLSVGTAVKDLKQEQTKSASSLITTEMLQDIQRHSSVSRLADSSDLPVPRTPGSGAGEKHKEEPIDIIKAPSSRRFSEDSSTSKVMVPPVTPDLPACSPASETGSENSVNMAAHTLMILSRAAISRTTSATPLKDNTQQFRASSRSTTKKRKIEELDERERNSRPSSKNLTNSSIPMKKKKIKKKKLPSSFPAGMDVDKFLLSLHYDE
Method in brief: as §1

PSMD6 = molecular target: T6, PSMD6 (UniProt Q15008)
T6 sequence (whole entry): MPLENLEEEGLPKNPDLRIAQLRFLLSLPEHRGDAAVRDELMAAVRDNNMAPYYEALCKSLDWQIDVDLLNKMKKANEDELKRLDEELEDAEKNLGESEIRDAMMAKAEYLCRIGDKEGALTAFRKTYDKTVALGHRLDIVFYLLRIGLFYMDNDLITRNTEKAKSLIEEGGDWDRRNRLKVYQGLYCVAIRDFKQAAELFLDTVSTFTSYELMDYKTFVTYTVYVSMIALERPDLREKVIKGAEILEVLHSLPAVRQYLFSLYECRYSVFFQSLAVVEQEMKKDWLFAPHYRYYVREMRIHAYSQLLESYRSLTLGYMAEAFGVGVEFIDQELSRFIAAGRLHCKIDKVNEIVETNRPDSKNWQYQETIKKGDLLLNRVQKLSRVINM
Method in brief: as §1

Nc1ncnc2c1ncn2[C@@H]1O[C@H](COP(=O)(O)OP(=O)(O)NP(=O)(O)O)[C@@H](O)[C@H]1O [adenylyl imidodiphosphate]
NP40-soluble protein abundance (GALE; concentration: 1mM): 0.971 ± 0.036
NP40-soluble protein abundance (GALE; concentration: 2mM): 0.948 ± 0.062
NP40-soluble protein abundance (GALE; concentration: 4mM): 1.01 ± 0.024
NP40-soluble protein abundance (GALE; concentration: 6mM): 1.02 ± 0.074
NP40-soluble protein abundance (GALE; concentration: 8mM): 1.04 ± 0.058
NP40-soluble protein abundance (GALE; concentration: 10mM): 0.992 ± 0.05
NP40-soluble protein abundance (LAGE3; concentration: 1mM): 0.939 ± 0.046
NP40-soluble protein abundance (LAGE3; concentration: 2mM): 0.923 ± 0.024
NP40-soluble protein abundance (LAGE3; concentration: 4mM): 0.933 ± 0.034
NP40-soluble protein abundance (LAGE3; concentration: 6mM): 0.937 ± 0.059
NP40-soluble protein abundance (LAGE3; concentration: 8mM): 0.964 ± 0.044
NP40-soluble protein abundance (LAGE3; concentration: 10mM): 0.931 ± 0.04
NP40-soluble protein abundance (LMAN2; concentration: 1mM): 0.994 ± 0.057
NP40-soluble protein abundance (LMAN2; concentration: 2mM): 0.937 ± 0.011
NP40-soluble protein abundance (LMAN2; concentration: 4mM): 0.971 ± 0.066
NP40-soluble protein abundance (LMAN2; concentration: 6mM): 0.971 ± 0.055
NP40-soluble protein abundance (LMAN2; concentration: 8mM): 1.02 ± 0.072
NP40-soluble protein abundance (LMAN2; concentration: 10mM): 0.98 ± 0.055
NP40-soluble protein abundance (MLLT11; concentration: 1mM): 0.986 ± 0.041
NP40-soluble protein abundance (MLLT11; concentration: 2mM): 1.02 ± 0.025
NP40-soluble protein abundance (MLLT11; concentration: 4mM): 0.96 ± 0.028
NP40-soluble protein abundance (MLLT11; concentration: 6mM): 1 ± 0.048
NP40-soluble protein abundance (MLLT11; concentration: 8mM): 0.971 ± 0.034
NP40-soluble protein abundance (MLLT11; concentration: 10mM): 0.971 ± 0.04
NP40-soluble protein abundance (NPAT; concentration: 1mM): 1.05 ± 0.023
NP40-soluble protein abundance (NPAT; concentration: 2mM): 1.04 ± 0.031
NP40-soluble protein abundance (NPAT; concentration: 4mM): 1.02 ± 0.011
NP40-soluble protein abundance (NPAT; concentration: 6mM): 0.997 ± 0.047
NP40-soluble protein abundance (NPAT; concentration: 8mM): 0.995 ± 0.03
NP40-soluble protein abundance (NPAT; concentration: 10mM): 1.03 ± 0.017
NP40-soluble protein abundance (PSMD6; concentration: 1mM): 0.989 ± 0.034
NP40-soluble protein abundance (PSMD6; concentration: 2mM): 0.952 ± 0.062
NP40-soluble protein abundance (PSMD6; concentration: 4mM): 0.933 ± 0.067
